## Library screening results

By UniProt entry, the sequences of proteins in these tests, tags left out.
UniProt E9BF75, entry or part of it: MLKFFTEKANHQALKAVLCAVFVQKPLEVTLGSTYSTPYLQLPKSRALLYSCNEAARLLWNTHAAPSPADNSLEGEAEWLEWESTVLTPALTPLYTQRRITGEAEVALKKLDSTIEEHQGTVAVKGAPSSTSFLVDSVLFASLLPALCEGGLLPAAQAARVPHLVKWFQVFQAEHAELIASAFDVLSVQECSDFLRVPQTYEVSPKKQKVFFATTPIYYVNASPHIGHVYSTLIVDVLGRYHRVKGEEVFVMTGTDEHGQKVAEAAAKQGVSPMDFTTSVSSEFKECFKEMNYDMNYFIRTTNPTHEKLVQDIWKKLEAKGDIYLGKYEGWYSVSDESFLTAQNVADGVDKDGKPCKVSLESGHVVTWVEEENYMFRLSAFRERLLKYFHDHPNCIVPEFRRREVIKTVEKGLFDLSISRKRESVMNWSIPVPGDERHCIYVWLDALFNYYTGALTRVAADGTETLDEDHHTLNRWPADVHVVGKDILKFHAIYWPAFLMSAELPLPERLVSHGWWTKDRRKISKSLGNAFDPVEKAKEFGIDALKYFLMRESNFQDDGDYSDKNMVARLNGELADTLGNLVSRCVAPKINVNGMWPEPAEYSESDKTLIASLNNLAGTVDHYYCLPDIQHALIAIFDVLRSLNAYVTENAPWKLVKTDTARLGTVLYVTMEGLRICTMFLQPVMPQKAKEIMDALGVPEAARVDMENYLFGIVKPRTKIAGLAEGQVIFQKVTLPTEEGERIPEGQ

From ChEMBL document CHEMBL3988442, “University of Dundee, Small-Polar-MMV Screening Library” (2021).

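Primary screen of methionyl-tRNA synthetase; the read-out is not stated. Target: Methionyl-tRNA synthetase (putative), Leishmania donovani (UniProt E9BF75). The test concentration is not given. Values are per cent inhibition. Of about 68,000 compounds tested this way, about 24 (0.035%) reached 50% or more in at least one test.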

All values are in %. The record does not define 0% and 100%; most values in the screen are far below 50% and negative numbers occur (in some assays of this library far below -100). This is an unselected part of the compounds tested.

For CN(C)C(=O)COCC1CN(Cc2ccco2)Cc2ncn(C)c21 (stereo unspecified) the result was 7.104%. With CC(C)(C)n1ncc2c1NC(=O)CC2c1ccc(C#N)cc1 (stereo unspecified) the screen gave 10.7%. CN(Cc1noc2c1CCCC2)C(=O)Nc1cncc(F)c1 gave 11.04%. Cn1cc([C@@H]2CN(S(=O)(=O)c3cccnc3)C[C@H]2N)c2ccncc21 read 10.25%. With CCc1nc(CN2CCCC(NCc3nnc(C4CC4)n3C)C2)no1 (stereo unspecified) the screen gave 19.34%.

O=C(NCc1ccc(Cl)cc1)N1CCN(CC(O)C2CC2)CC1 (stereo unspecified) read -2.87%. For COc1ccccc1OC1(C(=O)O)CCN(c2ncnc(C)c2C)CC1 the result was 7.205%. Result for CC(C)OC[C@H]1CCC[C@]12CN(S(=O)(=O)C1CC1)CCO2 was 13.77%. For COc1cc(N2CCC3(CCN(C(=O)c4cccnc4)CC3)C2)ncn1 the result was 10.96%. For CCN(CC(=O)Nc1cc(Cl)ccc1C)C(=O)c1cnccn1 the result was 11.49%.

Result for COCC(=O)N1Cc2cnc(Cc3ccc(OC)cc3)nc2C1 was 14.29%. With CC(c1ccc(Cl)cc1)N1CCN(CCS(N)(=O)=O)CC1 (stereo unspecified) the screen gave 16.39%. For CCC(=O)N1CCCC1c1nc(N(C)C)ncc1-c1ccc(Cl)cc1 (stereo unspecified) the result was 16.8%. For CCOc1ccc(C(=O)Nc2c(C)nc3scc(C)n3c2=O)cc1 the result was 3.727%. Result for Cn1cc(N2CC3(CCN(S(C)(=O)=O)C3)CC2=O)cn1 (stereo unspecified) was 2.932%.

Result for O=C1N[C@@H]2CCN(C(=O)C3CCCC3)[C@@H]2C(=O)N1c1ccc(F)cc1 was 5.495%. CO[C@H]1CN(C(C)C)C[C@@H]1NC(=O)Nc1ccc2oc(C)cc2c1 read 11.04%. O=C(N1CCCC1)N1C[C@H]2CC[C@@]3(N=C(c4ccccc4)NC3=O)[C@H]2C1 read 9.63%. Result for NC(c1ccc(F)cc1)c1cccs1 (stereo unspecified) was 13.12%. CCc1nc2n(n1)CC(NCc1nc(Cc3ccccc3)no1)CC2 (stereo unspecified) read 1.397%.

Result for CN(Cc1ccco1)C(=O)CN1CCCC1c1cccs1 (stereo unspecified) was 10%. For COc1ccc(OC)c(-c2csc(-c3cccc(C(=O)O)c3)n2)c1 the result was 7.216%. With Cc1csc2ncnc(N3CCC(Cn4cc(C(C)(C)N)nn4)CC3)c12 the screen gave -12.32%. CCCn1nnnc1COc1ccc(C(=O)OC)cc1OC gave 13.24%. With CCCc1cc(NCc2noc(COC)n2)n2nccc2n1 the screen gave 9.415%.

With CN(C)C1CCCN(C(=O)NCCC(=O)N2CCCCCC2)C1 (stereo unspecified) the screen gave 10.92%. For Cc1ccc(NC(=O)Cc2cnc3n(C)c(=O)[nH]c(=O)n23)cc1 the result was 2.857%. CN1CCN(CCCNC(=O)CCc2nc3cc(Br)cnc3[nH]2)CC1 read 5.831%. COc1ccc(CN2CCC3(CCCN(c4ncc(F)cn4)C3)C2)cc1 (stereo unspecified) read 9.333%. O=C(N1CCOCC1)N1CC[C@H]2[C@@H]1CCC(=O)N2c1ccccc1 gave 15.33%.

With CN(C)[C@@H]1CO[C@H](CNC(=O)c2cccs2)[C@H]1O the screen gave 11.54%. With COc1ncccc1-c1nc(-c2ccccn2)nn1C1CCS(=O)(=O)C1 (stereo unspecified) the screen gave 0%. With Cc1oncc1C(=O)N1C[C@H](OCc2ccccn2)[C@H]2OCCC[C@H]21 the screen gave 16.43%. CCc1nc2ccccc2n1C(CC)C(=O)N(C)CCc1noc(C)n1 (stereo unspecified) gave 14.37%. With O=C1Nc2ccccc2C1C1CCN(C(=O)C2CC2)CC1 (stereo unspecified) the screen gave 3.333%.

CC(C)(C)c1nnc(CN2CCn3c(nnc3C3CC3)C2)o1 gave 12.59%. Result for CC(C)Oc1cccc(CN(C)C(=O)Cc2ccon2)c1 was -2.198%. O=C(c1cccnc1)N1CC(S(=O)(=O)c2ccc(Cl)cc2)C1 read 14.91%. For CCCC(=O)N1CCC(C(=O)NCCN2CCC(C)CC2)CC1 the result was 2.717%. Cc1cc(C)c(CNC(=O)N2CCCC2c2ccccn2)c(=O)[nH]1 (stereo unspecified) gave 23.36%.

Cc1ccc(NC2CCN(C(=O)Cc3ccc(C#N)cc3)CC2)nn1 gave 13.73%. O=C(NCc1ccccc1Cn1ccnc1)N1CCSCC1 read 12.37%. For CN(C)S(=O)(=O)NC1CCCc2c1cnn2-c1ccc(C(C)(C)C)cc1 (stereo unspecified) the result was 17.34%. Result for CC(C(=O)NCCOc1ccc2c(c1)OCO2)n1cncn1 (stereo unspecified) was 6.103%. Result for COc1ccc(CCN2CCN(C(=O)c3scnc3C)CC2)cc1 was 16.9%.

With CCOCCCNC(=O)C1CCC(=O)N(CCc2ccc(Cl)cc2)C1 (stereo unspecified) the screen gave 13.31%. NCC1Cc2cc(-c3cncc(C(=O)N4CCCCC4)n3)cc(F)c2O1 (stereo unspecified) read 8.974%. CCc1nc(CN2CCCN(C(=O)COCC3CC3)CC2)cs1 gave 10.43%. With Cn1cnc2cc(CCC(=O)Nc3nc[nH]n3)ccc21 the screen gave 7.094%. With CSc1ccc(NCc2csc(CS(C)(=O)=O)n2)cc1F the screen gave 14.25%.

With COCc1cc(NCC(F)(F)F)n2nccc2n1 the screen gave 3.254%. Result for O=C(C1=CCCC1)N1CCC[C@]2(C[C@@H](OCc3ccncc3)CO2)C1 was 17.15%. COc1cccc(C(=O)NS(=O)(=O)c2cc(Cl)sc2Cl)c1OC(F)F read 8.488%. Result for Cc1cccc(CN2C(=O)CO[C@@H]3CN(Cc4cnn(C)c4)C[C@H]32)c1 was 11.24%. Result for O=C1CCC2(CCN(Cc3ccsc3)CC2)N1Cc1ccccc1 was 17.37%.

For COc1cc(C)ccc1OCCC(=O)N1CCCC1Cn1cccn1 (stereo unspecified) the result was 14.96%. With CNC(=O)NC(=O)CCSCc1cc(Cl)cc2cccnc12 the screen gave 13.91%. COCCCN1CC2(CCCCN2C(=O)c2ccsc2)CC1=O (stereo unspecified) read 12.46%. With Cn1cnc2c1CCN(CCOc1ccc3c(c1)CCC(=O)N3)C2 the screen gave 6.72%.

Once more, the final 5:

- O=C1CCC2(CCN(Cc3ccsc3)CC2)N1Cc1ccccc1 : 17.37%
- COc1cc(C)ccc1OCCC(=O)N1CCCC1Cn1cccn1 (stereo unspecified) : 14.96%
- CNC(=O)NC(=O)CCSCc1cc(Cl)cc2cccnc12 : 13.91%
- COCCCN1CC2(CCCCN2C(=O)c2ccsc2)CC1=O (stereo unspecified) : 12.46%
- Cn1cnc2c1CCN(CCOc1ccc3c(c1)CCC(=O)N3)C2 : 6.72%